Assay results taken from patent EP4538294A1.
These are yes or no findings as the source states them, for the method shown. A result given as binding can be weak or reduced; the word gives no strength.

Target: monkey CD3 on activated monkey PBMC (monkey)
Experiment: FACS, activated monkey PBMC

B1: Tri-46 (trispecific antibody, V domains shown)
VHH: EVQLVESGGGLVQPGGSLRLSCAASESISSIHIMAWYRQAPGKQRELVAGIRNDGSTVYVDSVKGRFTISRDNAKNSLYLQMNSLRAEDTAVYYCNADQGFGSYSEWERRSRWGQGTTVTVSS
VH 1: EVQLVQSGAEVKKPGSSVKVSCKASGYTFTSYGISWVRQAPGQGLEWMGEIYPRSGNTYYNEKFKGRVTLTADKSTSTAYMELSSLRSEDTAVYYCARGRAYGRNYPMDYWGQGTTVTVSS
VL 1: EIVLTQSPATLSLSPGERATLSCRASQSIGTSIHWYQQKPGQSPRLLIKYASESISGIPARFSGSGSGTDFTLTISSLEPEDFAVYYCQQSNSWPYTFGGGTKVEIK
VH 2: EVQLVESGGGVVQPGRSLRLSCAASGFTFTDYYMSWVRQAPGKGLEWVAMSRNKAKGHTIEYSSSVKGRFTISRDNSKNTLYLQMNSLRAEDTAVYYCARDTYESYDGYFDVWGQGTTVTVSS
VL 2: DIVMTQSPDSLAVSLGERATINCKSSQSLFNSRSRKNYLAWYQQKPGQTPKLLIYWASIRESGVPDRFSGSGSGTDFTLTISSLQAEDVAVYYCKQSYYLYTFGQGTKLEIK
binding: binds

B2: Tri-49 (trispecific antibody, V domains shown)
VHH: EVQLVESGGGLVQPGGSLRLSCAASESISSIHIMAWYRQAPGKQRELVAGIRNDGSTVYVDSVKGRFTISRDNAKNSLYLQMNSLRAEDTAVYYCNADQGFGSYSEWERRSRWGQGTTVTVSS
VH 1: EVQLVQSGAEVKKPGSSVKVSCKASGYTFTSYGISWVRQAPGQGLEWMGEIYPRSGNTYYNEKFKGRVTLTADKSTSTAYMELSSLRSEDTAVYYCARGRAYGRNYPMDYWGQGTTVTVSS
VL 1: EIVLTQSPATLSLSPGERATLSCRASQSIGTSIHWYQQKPGQSPRLLIKYASESISGIPARFSGSGSGTDFTLTISSLEPEDFAVYYCQQSNSWPYTFGGGTKVEIK
VH 2: EVQLVESGGGVVQPGRSLRLSCAASGFTFTDYYMSWVRQAPGKGLEWVAMSRNKAKGHTIEYSSSVKGRFTISRDNSKNTLYLQMNSLRAEDTAVYYCARDTYESYDGYFDVWGQGTTVTVSS
VL 2: DIVMTQSPDSLAVSLGERATINCKSSQSLFNSRSRKNYLAWYQQKPGQTPKLLIYWASIRESGVPDRFSGSGSGTDFTLTISSLQAEDVAVYYCKQSYYLYTFGQGTKLEIK
binding: binds

B3: Tri-52 (trispecific antibody, V domains shown)
VHH: EVQLVESGGGLVQPGGSLRLSCAASESISSIHIMAWYRQAPGKQRELVAGIRNDGSTVYVDSVKGRFTISRDNAKNSLYLQMNSLRAEDTAVYYCNADQGFGSYSEWERRSRWGQGTTVTVSS
VH 1: EVQLVQSGAEVKKPGSSVKVSCKASGYTFTSYGISWVRQAPGQGLEWMGEIYPRSGNTYYNEKFKGRVTLTADKSTSTAYMELSSLRSEDTAVYYCARGRAYGRNYPMDYWGQGTTVTVSS
VL 1: EIVLTQSPATLSLSPGERATLSCRASQSIGTSIHWYQQKPGQSPRLLIKYASESISGIPARFSGSGSGTDFTLTISSLEPEDFAVYYCQQSNSWPYTFGGGTKVEIK
VH 2: EVQLVESGGGVVQPGRSLRLSCAASGFTFTDYYMSWVRQAPGKGLEWVAMSRNKAKGHTIEYSSSVKGRFTISRDNSKNTLYLQMNSLRAEDTAVYYCARDTYESYDGYFDVWGQGTTVTVSS
VL 2: DIVMTQSPDSLAVSLGERATINCKSSQSLFNSRSRKNYLAWYQQKPGQTPKLLIYWASIRESGVPDRFSGSGSGTDFTLTISSLQAEDVAVYYCKQSYYLYTFGQGTKLEIK
binding: binds

B4: Tri-55 (trispecific antibody, V domains shown)
VHH: EVQLVESGGGLVQPGGSLRLSCAASESISSIHIMAWYRQAPGKQRELVAGIRNDGSTVYVDSVKGRFTISRDNAKNSLYLQMNSLRAEDTAVYYCNADQGFGSYSEWERRSRWGQGTTVTVSS
VH 1: EVQLVQSGAEVKKPGSSVKVSCKASGYTFTSYGISWVRQAPGQGLEWMGEIYPRSGNTYYNEKFKGRVTLTADKSTSTAYMELSSLRSEDTAVYYCARGRAYGRNYPMDYWGQGTTVTVSS
VL 1: EIVLTQSPATLSLSPGERATLSCRASQSIGTSIHWYQQKPGQSPRLLIKYASESISGIPARFSGSGSGTDFTLTISSLEPEDFAVYYCQQSNSWPYTFGGGTKVEIK
VH 2: EVQLVESGGGVVQPGRSLRLSCAASGFTFTDYYMSWVRQAPGKGLEWVAMSRNKAKGHTIEYSSSVKGRFTISRDNSKNTLYLQMNSLRAEDTAVYYCARDTYESYDGYFDVWGQGTTVTVSS
VL 2: DIVMTQSPDSLAVSLGERATINCKSSQSLFNSRSRKNYLAWYQQKPGQTPKLLIYWASIRESGVPDRFSGSGSGTDFTLTISSLQAEDVAVYYCKQSYYLYTFGQGTKLEIK
binding: binds

B5: Tri-56 (trispecific antibody, V domains shown)
VHH: EVQLVESGGGLVQPGGSLRLSCAASESISSIHIMAWYRQAPGKQRELVAGIRNDGSTVYVDSVKGRFTISRDNAKNSLYLQMNSLRAEDTAVYYCNADQGFGSYSEWERRSRWGQGTTVTVSS
VH 1: EVQLVQSGAEVKKPGSSVKVSCKASGYTFTSYGISWVRQAPGQGLEWMGEIYPRSGNTYYNEKFKGRVTLTADKSTSTAYMELSSLRSEDTAVYYCARGRAYGRNYPMDYWGQGTTVTVSS
VL 1: EIVLTQSPATLSLSPGERATLSCRASQSIGTSIHWYQQKPGQSPRLLIKYASESISGIPARFSGSGSGTDFTLTISSLEPEDFAVYYCQQSNSWPYTFGGGTKVEIK
VH 2: EVQLVESGGGVVQPGRSLRLSCAASGFTFTDYYMSWVRQAPGKGLEWVAMSRNKAKGHTIEYSSSVKGRFTISRDNSKNTLYLQMNSLRAEDTAVYYCARDTYESYDGYFDVWGQGTTVTVSS
VL 2: DIVMTQSPDSLAVSLGERATINCKSSQSLFNSRSRKNYLAWYQQKPGQTPKLLIYWASIRESGVPDRFSGSGSGTDFTLTISSLQAEDVAVYYCKQSYYLYTFGQGTKLEIK
binding: binds

B6: Tri-59 (trispecific antibody, V domains shown)
VHH: EVQLVESGGGLVQPGGSLRLSCAASESISSIHIMAWYRQAPGKQRELVAGIRNDGSTVYVDSVKGRFTISRDNAKNSLYLQMNSLRAEDTAVYYCNADQGFGSYSEWERRSRWGQGTTVTVSS
VH 1: EVQLVQSGAEVKKPGSSVKVSCKASGYTFTSYGISWVRQAPGQGLEWMGEIYPRSGNTYYNEKFKGRVTLTADKSTSTAYMELSSLRSEDTAVYYCARGRAYGRNYPMDYWGQGTTVTVSS
VL 1: EIVLTQSPATLSLSPGERATLSCRASQSIGTSIHWYQQKPGQSPRLLIKYASESISGIPARFSGSGSGTDFTLTISSLEPEDFAVYYCQQSNSWPYTFGGGTKVEIK
VH 2: EVQLVESGGGVVQPGRSLRLSCAASGFTFTDYYMSWVRQAPGKGLEWVAMSRNKAKGHTIEYSSSVKGRFTISRDNSKNTLYLQMNSLRAEDTAVYYCARDTYESYDGYFDVWGQGTTVTVSS
VL 2: DIVMTQSPDSLAVSLGERATINCKSSQSLFNSRSRKNYLAWYQQKPGQTPKLLIYWASIRESGVPDRFSGSGSGTDFTLTISSLQAEDVAVYYCKQSYYLYTFGQGTKLEIK
binding: binds

B7: Tri-63 (trispecific antibody, V domains shown)
VHH: EVQLVESGGGLVQPGGSLRLSCAASESISSIHIMAWYRQAPGKQRELVAGIRNDGSTVYVDSVKGRFTISRDNAKNSLYLQMNSLRAEDTAVYYCNADQGFGSYSEWERRSRWGQGTTVTVSS
VH 1: EVQLVQSGAEVKKPGSSVKVSCKASGYTFTSYGISWVRQAPGQGLEWMGEIYPRSGNTYYNEKFKGRVTLTADKSTSTAYMELSSLRSEDTAVYYCARGRAYGRNYPMDYWGQGTTVTVSS
VL 1: EIVLTQSPATLSLSPGERATLSCRASQSIGTSIHWYQQKPGQSPRLLIKYASESISGIPARFSGSGSGTDFTLTISSLEPEDFAVYYCQQSNSWPYTFGGGTKVEIK
VH 2: EVQLVESGGGVVQPGRSLRLSCAASGFTFTDYYMSWVRQAPGKGLEWVAMSRNKAKGHTIEYSSSVKGRFTISRDNSKNTLYLQMNSLRAEDTAVYYCARDTYESYDGYFDVWGQGTTVTVSS
VL 2: DIVMTQSPDSLAVSLGERATINCKSSQSLFNSRSRKNYLAWYQQKPGQTPKLLIYWASIRESGVPDRFSGSGSGTDFTLTISSLQAEDVAVYYCKQSYYLYTFGQGTKLEIK
binding: binds

B8: Tri-64 (trispecific antibody, V domains shown)
VHH: EVQLVESGGGLVQPGGSLRLSCAASESISSIHIMAWYRQAPGKQRELVAGIRNDGSTVYVDSVKGRFTISRDNAKNSLYLQMNSLRAEDTAVYYCNADQGFGSYSEWERRSRWGQGTTVTVSS
VH 1: EVQLVQSGAEVKKPGSSVKVSCKASGYTFTSYGISWVRQAPGQGLEWMGEIYPRSGNTYYNEKFKGRVTLTADKSTSTAYMELSSLRSEDTAVYYCARGRAYGRNYPMDYWGQGTTVTVSS
VL 1: EIVLTQSPATLSLSPGERATLSCRASQSIGTSIHWYQQKPGQSPRLLIKYASESISGIPARFSGSGSGTDFTLTISSLEPEDFAVYYCQQSNSWPYTFGGGTKVEIK
VH 2: EVQLVESGGGVVQPGRSLRLSCAASGFTFTDYYMSWVRQAPGKGLEWVAMSRNKAKGHTIEYSSSVKGRFTISRDNSKNTLYLQMNSLRAEDTAVYYCARDTYESYDGYFDVWGQGTTVTVSS
VL 2: DIVMTQSPDSLAVSLGERATINCKSSQSLFNSRSRKNYLAWYQQKPGQTPKLLIYWASIRESGVPDRFSGSGSGTDFTLTISSLQAEDVAVYYCKQSYYLYTFGQGTKLEIK
binding: binds

B9: Tri-65 (trispecific antibody, V domains shown)
VHH: EVQLVESGGGLVQPGGSLRLSCAASESISSIHIMAWYRQAPGKQRELVAGIRNDGSTVYVDSVKGRFTISRDNAKNSLYLQMNSLRAEDTAVYYCNADQGFGSYSEWERRSRWGQGTTVTVSS
VH 1: EVQLVQSGAEVKKPGASVKVSCKTSGYIFTNFGITWVRQAPGQRLEWMGENYPRRINTYYNEKFKGRVTITADKSASTAYMELSSLRSEDTAVYYCSRKDIFGLSYALDYWGQGTTVTVSS
VL 1: DIQMTQSPSSLSASVGDRVTITCKASQNVGTNVAWYQHKPGKSPKALIYSASYQYSGVPSRFSGSGSGTDFTLTISSLQPEDVATYICQQYKNYPYTFGGGTKVEIK
VH 2: EVQLVESGGGVVQPGRSLRLSCAASGFTFTDYYMSWVRQAPGKGLEWVAMSRNKAKGHTIEYSSSVKGRFTISRDNSKNTLYLQMNSLRAEDTAVYYCARDTYESYDGYFDVWGQGTTVTVSS
VL 2: DIVMTQSPDSLAVSLGERATINCKSSQSLFNSRSRKNYLAWYQQKPGQTPKLLIYWASIRESGVPDRFSGSGSGTDFTLTISSLQAEDVAVYYCKQSYYLYTFGQGTKLEIK
binding: binds

B10: Tri-66 (trispecific antibody, V domains shown)
VHH: EVQLVESGGGLVQPGGSLRLSCAASESISSIHIMAWYRQAPGKQRELVAGIRNDGSTVYVDSVKGRFTISRDNAKNSLYLQMNSLRAEDTAVYYCNADQGFGSYSEWERRSRWGQGTTVTVSS
VH 1: EVQLVQSGAEVKKPGASVKVSCKTSGYIFTNFGITWVRQAPGQRLEWMGENYPRRINTYYNEKFKGRVTITADKSASTAYMELSSLRSEDTAVYYCSRKDIFGLSYALDYWGQGTTVTVSS
VL 1: DIQMTQSPSSLSASVGDRVTITCKASQNVGTNVAWYQHKPGKSPKALIYSASYQYSGVPSRFSGSGSGTDFTLTISSLQPEDVATYICQQYKNYPYTFGGGTKVEIK
VH 2: EVQLVESGGGVVQPGRSLRLSCAASGFTFTDYYMSWVRQAPGKGLEWVAMSRNKAKGHTIEYSSSVKGRFTISRDNSKNTLYLQMNSLRAEDTAVYYCARDTYESYDGYFDVWGQGTTVTVSS
VL 2: DIVMTQSPDSLAVSLGERATINCKSSQSLFNSRSRKNYLAWYQQKPGQTPKLLIYWASIRESGVPDRFSGSGSGTDFTLTISSLQAEDVAVYYCKQSYYLYTFGQGTKLEIK
binding: binds
